# Assay results: PubChem BioAssay AID256 (DTP/NCI, 2004)
# The list shows only some results of the screen, not a fair sample: it is rich in T/C values a quarter to a half above the control, in often repeated tests (any T/C) and in doses without a T/C. Other doses and runs of a compound stand elsewhere. T/C gives the treated animals as a percentage of the vehicle group. Some doses have a count of surviving animals in place of a T/C: the source files T/C as zero there, which appears to mark a toxic dose or a test without result, not a measured value. Some doses without a T/C left all or most animals alive at the check, yet need not have been tolerated: the source hardly ever lists a survival T/C far under the control, and the zero likely stands for such cases as well. Survivors were counted at the toxicity check, usually on the fifth day, unless a day is given; later deaths do not show. Schedule codes are those of the source, read here as Q, the interval in days (D) or hours (H), X, the number of doses. Some schedules carry Z or #; the key to these is not given. Some doses were run more than once; the values are given in rising order. For survival time, this PubChem deposit counts one and a half times the control or more as active, and values a quarter to a half above the control carry no call in these data; other NCI protocols may use other cut-offs. Some T/C values are followed by the survivors on the day toxicity was checked, most often the fifth; without a count, all were alive then.
# Test system: CD2F1 mice, L1210 leukemia ip, survival T/C
# Assay: NCI In Vivo Anticancer Drug Screen. Data for tumor model L1210 Leukemia (intraperitoneal) in CD2F1 (CDF1) mice
# Conditions: higher T/C = longer survival
# Summary of the method: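 In this screen, transplantable tumors were grown in mice given either the compound or its vehicle. Results were expressed as the treated measurement relative to the control measurement.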
# [1] = T/C endpoint: mean survival time, dose: 50.0 mg/kg/injection, schedule: Q01DX005 (ip), vehicle: other
# [2] = T/C endpoint: mean survival time, dose: 100.0 mg/kg/injection, schedule: Q01DX005 (ip), vehicle: other
# [3] = T/C endpoint: mean survival time, dose: 400.0 mg/kg/injection, schedule: Q01DX001 (ip), vehicle: saline with Tween-80
# [4] = T/C endpoint: mean survival time, dose: 100.0 mg/kg/injection, schedule: Q04DX003 (ip), vehicle: saline with Tween-80
# [5] = T/C endpoint: mean survival time, dose: 200.0 mg/kg/injection, schedule: Q04DX003 (ip), vehicle: saline with Tween-80
# [6] = T/C endpoint: mean survival time, dose: 400.0 mg/kg/injection, schedule: Q04DX003 (ip), vehicle: saline with Tween-80
# [7] = T/C endpoint: mean survival time, dose: 400.0 mg/kg/injection, schedule: Q01DX009 (ip), vehicle: saline with Tween-80
# [8] = T/C endpoint: mean survival time, dose: 12.5 mg/kg/injection, schedule: Q01DX005 (ip), vehicle: other
compound,measurement,setting,value
CCCn1cnc2c(=S)nc[nH]c21,survivor count,"T/C endpoint: mean survival time, dose: 250.0 mg/kg/injection, schedule: Q01DX Z (ip), vehicle: carboxymethylcellulose (CMC)",6 of 7
same,survivor count,"T/C endpoint: mean survival time, dose: 300.0 mg/kg/injection, schedule: Q01DX Z (ip), vehicle: carboxymethylcellulose (CMC)",3 of 7
COC(=O)NC1C(C)OC(OC2C/C=C(/C)C3C=CC4C(OC5CC(OC6CCC(OC7CC(O)C(OC8CCC(O)C(C)O8)C(C)O7)C(C)O6)C(OC(C)=O)C(C)O5)C(C)CC(C)C4C3(C)/C(O)=C3/C(=O)OC4(CC(C=O)=CC(O)C4/C=C\2C)C3=O)CC1(C)[N+](=O)[O-] (centres undefined),survivor count,"T/C endpoint: median survival time, dose: 20.0 mg/kg/injection, schedule: Q01DX009 (ip), vehicle: water",1 of 6
c1coc(CNc2ncnc3c2ncn3Cc2ccco2)c1,survivor count,[1],5 of 5
same,survivor count,[2],4 of 5
O.O=C(O)C(Cc1ccc(O)cc1)N=Cc1c(O)cncc1COP(=O)(O)O.[Cu] (centres undefined),survivor count,"T/C endpoint: mean survival time, dose: 100.0 mg/kg/injection, schedule: Q01DX001 (ip), vehicle: saline with Tween-80",1 of 3
same,survivor count,"T/C endpoint: mean survival time, dose: 200.0 mg/kg/injection, schedule: Q01DX001 (ip), vehicle: saline with Tween-80",1 of 3
same,survivor count,[3],1 of 3
c1ccc(Nc2ccccc2)cc1 (tested in a mixture with another compound),survivor count,"T/C endpoint: mean survival time, dose: 200.0 mg/kg/injection, schedule: Q04DX002 (ip), vehicle: saline",0 of 3
same,survivor count,"T/C endpoint: mean survival time, dose: 400.0 mg/kg/injection, schedule: Q04DX002 (ip), vehicle: saline",0 of 3
Cc1ccc(NC(=O)NO)cc1,survivor count,"T/C endpoint: mean survival time, dose: 140.0 mg/kg/injection, schedule: Q03HX024 (ip), vehicle: saline with Tween-80",1 of 8
same,survivor count,"T/C endpoint: mean survival time, dose: 210.0 mg/kg/injection, schedule: Q03HX024 (ip), vehicle: saline with Tween-80",0 of 8
C=C(OC)C(Nc1cc(OC)c(OC)cc1C(=O)OC1CC(O[C@@H]2C(=O)C(NC(=O)OC)=C3/C(=C\CSSSC)[C@]2(O)C#C/C=C\C#C[C@@H]3OC2OC(C)C(NOC3CC(O)C(SC)C(C)O3)C(O)C2OC2CC(OC)C(NCCC)CO2)OC(C)C1O)OC (some centres undefined),T/C,"T/C endpoint: median survival time, dose: 0.08 micrograms/kg/injection, schedule: Q01DX005 (ip), vehicle: saline + alcohol",142 % of control
same,T/C,"T/C endpoint: median survival time, dose: 0.16 micrograms/kg/injection, schedule: Q01DX005 (ip), vehicle: saline + alcohol",132 % of control
same,T/C,"T/C endpoint: median survival time, dose: 0.8 micrograms/kg/injection, schedule: Q01DX005 (ip), vehicle: methylcellulose (MC)",135 % of control [5 of 6 alive]
same,T/C,"T/C endpoint: median survival time, dose: 1.6 micrograms/kg/injection, schedule: Q01DX001 (ip), vehicle: methylcellulose (MC)",139 % of control [5 of 6 alive]
same,T/C,"T/C endpoint: median survival time, dose: 1.6 micrograms/kg/injection, schedule: Q01DX005 (ip), vehicle: methylcellulose (MC)",148 % of control
same,T/C,"T/C endpoint: median survival time, dose: 1.6 micrograms/kg/injection, schedule: Q04DX003 (ip), vehicle: methylcellulose (MC)",144 % of control
same,T/C,"T/C endpoint: median survival time, dose: 3.2 micrograms/kg/injection, schedule: Q01DX001 (ip), vehicle: methylcellulose (MC)",148 % of control
same,T/C,"T/C endpoint: median survival time, dose: 3.2 micrograms/kg/injection, schedule: Q04DX003 (ip), vehicle: methylcellulose (MC)",148 % of control
same,survivor count,"T/C endpoint: median survival time, dose: 12.8 micrograms/kg/injection, schedule: Q01DX005 (ip), vehicle: methylcellulose (MC)",2 of 6
same,T/C,"T/C endpoint: median survival time, dose: 12.8 micrograms/kg/injection, schedule: Q04DX003 (ip), vehicle: methylcellulose (MC)",148 % of control
same,survivor count,"T/C endpoint: median survival time, dose: 25.6 micrograms/kg/injection, schedule: Q04DX003 (ip), vehicle: methylcellulose (MC)",2 of 6
same,survivor count,"T/C endpoint: median survival time, dose: 51.2 micrograms/kg/injection, schedule: Q01DX001 (ip), vehicle: methylcellulose (MC)",2 of 6
same,survivor count,"T/C endpoint: median survival time, dose: 102.4 micrograms/kg/injection, schedule: Q01DX001 (ip), vehicle: methylcellulose (MC)",1 of 6
CC(C)(C)N[P+](Cc1ccccc1)(NC(C)(C)C)c1ccccc1,survivor count,"T/C endpoint: mean survival time, dose: 50.0 mg/kg/injection, schedule: Q04DX003 (ip), vehicle: saline with Tween-80",2 of 6
same,survivor count,[4],0 of 6
same,survivor count,[5],0 of 6
same,survivor count,[6],0 of 6
CC(=O)OC1CC(C)CCC1C(C)C (centres undefined),survivor count,[6],3 of 6
C[Si](C)c1cccc(Cl)c1,survivor count,[7],0 of 6
Cc1ccoc1,survivor count,"T/C endpoint: median survival time, dose: 133.3 mg/kg/injection, schedule: Q03HX015 (ip), vehicle: saline with Tween-80",3 of 6
ClCC(Cl)CN(Cc1ccccc1)Cc1ccccc1 (centres undefined),survivor count,[7],2 of 6
CCCCCNC(=O)Nc1cccc(Cl)c1C,survivor count,[7],5 of 6
Cc1cn(C2CC3[O][Sn]([c]4ccccc4)([c]4ccccc4)[O]CC3O2)c(=O)[nH]c1=O (centres undefined),survivor count,"T/C endpoint: mean survival time, dose: 0.75 mg/kg/injection, schedule: Q01DX005 (ip), vehicle: saline",6 of 6
same,survivor count,"T/C endpoint: mean survival time, dose: 6.0 mg/kg/injection, schedule: Q01DX005 (ip), vehicle: other",6 of 6
same,T/C,[8],"102 [5 of 6 alive], 107, 167 % of control"
same,survivor count,[8],3 of 6
same,survivor count,"T/C endpoint: mean survival time, dose: 25.0 mg/kg/injection, schedule: Q01DX005 (ip), vehicle: other","0 of 6, 1 of 6, 6 of 6"
same,survivor count,[1],0 of 6
same,survivor count,[2],0 of 6
same,survivor count,"T/C endpoint: mean survival time, dose: 200.0 mg/kg/injection, schedule: Q01DX005 (ip), vehicle: other",0 of 6
CCOC(=O)c1cnc2c(cnn2CC)c1N1CCN(CCO)CC1,survivor count,"T/C endpoint: mean survival time, dose: 200.0 mg/kg/injection, schedule: Q04DX003 (ip), vehicle: Klucel (hydroxypropylcellulose) (HPC)",0 of 3
same,survivor count,"T/C endpoint: mean survival time, dose: 400.0 mg/kg/injection, schedule: Q04DX003 (ip), vehicle: Klucel (hydroxypropylcellulose) (HPC)",0 of 3
Cc1c(N=Nc2ccc(N(C)C)cc2)cc[n+]([O-])c1C,survivor count,[6],4 of 6
CC(=O)NC1=NC(=O)/C(=C/Cc2cccs2)N1C,survivor count,[7],0 of 6
CC(C(=O)c1ccccc1)N(C)C (centres undefined),survivor count,"T/C endpoint: mean survival time, dose: 200.0 mg/kg/injection, schedule: Q04DX003 (ip), vehicle: saline",0 of 4
same,survivor count,"T/C endpoint: mean survival time, dose: 400.0 mg/kg/injection, schedule: Q04DX003 (ip), vehicle: saline",0 of 4
CSc1ccccc1C1=CCCCCC1,survivor count,[3],5 of 6
O=C1C=CC(=O)N1c1ccc(Cl)cc1[N+](=O)[O-],survivor count,"T/C endpoint: mean survival time, dose: 6.25 mg/kg/injection, schedule: Q01DX009 (ip), vehicle: saline with Tween-80",6 of 6
same,survivor count,[4],2 of 6
same,survivor count,[5],2 of 6
same,survivor count,[6],0 of 6
COC(/C=C\C(OC)OC)OC,survivor count,"T/C endpoint: mean survival time, dose: 50.0 mg/kg/injection, schedule: Q01DX009 (ip), vehicle: saline",2 of 6
